Source: PMC6166740
No constants are given. Whether binding was seen depends on the method and setting. Binding seen in cells or lysates may run through a third protein. Some results given as binding are weak or reduced against the parent protein; the word gives no strength. Tags and fused reporters may be left off the sequences shown.

Biological target: T1, FLAG-tagged NME3 (NME/NM23 nucleoside-diphosphate kinase 3), wild type (human) (UniProt Q13232)
T1 sequence: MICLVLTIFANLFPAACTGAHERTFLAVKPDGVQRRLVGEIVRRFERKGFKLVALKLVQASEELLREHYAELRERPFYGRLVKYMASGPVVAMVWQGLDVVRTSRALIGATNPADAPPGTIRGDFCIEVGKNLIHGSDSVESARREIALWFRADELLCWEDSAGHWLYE
Assay: co-IP; FLAG-tagged and V5-tagged proteins coexpressed in HEK293T cells (calcium phosphate, 24 h); lysis in 1% Triton X-100, 20 mM Tris pH 7.5, 50 mM NaCl, 50 mM NaF, 15 mM Na4P2O7, 0.1 mM EDTA; anti-FLAG M2 agarose beads 2 h; Western blot with anti-V5 and anti-FLAG

binding: binds
B1: V5-tagged NEK8 (enzyme, UniProt Q86SG6 1-692)
chain: MEKYERIRVVGRGAFGIVHLCLRKADQKLVIIKQIPVEQMTKEERQAAQNECQVLKLLNHPNVIEYYENFLEDKALMIAMEYAPGGTLAEFIQKRCNSLLEEETILHFFVQILLALHHVHTHLILHRDLKTQNILLDKHRMVVKIGDFGISKILSSKSKAYTVVGTPCYISPELCEGKPYNQKSDIWALGCVLYELASLKRAFEAANLPALVLKIMSGTFAPISDRYSPELRQLVLSLLSLEPAQRPPLSHIMAQPLCIRALLNLHTDVGSVRMRRAEKSVAPSNTGSRTTSVRCRGIPRGPVRPAIPPPLSSVYAWGGGLGTPLRLPMLNTEVVQVAAGRTQKAGVTRSGRLILWEAPPLGAGGGSLLPGAVEQPQPQFISRFLEGQSGVTIKHVACGDFFTACLTDRGIIMTFGSGSNGCLGHGSLTDISQPTIVEALLGYEMVQVACGASHVLALSTERELFAWGRGDSGRLGLGTRESHSCPQQVPMPPGQEAQRVVCGIDSSMILTVPGQALACGSNRFNKLGLDHLSLGEEPVPHQQVEEALSFTLLGSAPLDQEPLLSIDLGTAHSAAVTASGDCYTFGSNQHGQLGTNTRRGSRAPCKVQGLEGIKMAMVACGDAFTVAIGAESEVYSWGKGARGRLGRRDEDAGLPRPVQLDETHPYTVTSVSCCHGNTLLAVRSVTDEPVPP
